# In PubChem BioAssay AID2283227 (EPA ToxCast):
# This list was built around the results that the source calls inconclusive (neither active nor inactive); the mix of calls is not that of the screen. The calls were made as follows: active = hit-call score of the fitted dose curve at least 0.9, where 1 is the maximum; inconclusive = response in the unintended direction; inactive = score below 0.9. Potencies of inconclusive entries are doubtful fits and often do not repeat.
# Tested on: pig Methylenetetrahydrofolate Reductase (MTHFR), gene 397180
# Experiment: NVS_ENZ_pMTHFR: NovaScreen (NVS) Enzymatic Assay for pig Methylenetetrahydrofolate Reductase (MTHFR)
# Experimental: NVS_ENZ_pMTHFR is a biochemical, single-readout assay that uses extracted gene-proteins from Porcine kidney in a tissue-based cell-free assay. Measurements were taken 1 hour after chemical dosing in a 96-well plate.NVS_ENZ_pMTHFR is one of one assay component(s) measured or calculated from the NVS_ENZ_pMTHFR assay. It is designed to make measurements of enzyme activity, a form of enzyme reporter, as detected with scintillation counting signals by Lysate-based radiodetection technology.Data from the assay component NVS_ENZ_pMTHFR was analyzed into 1 assay endpoint. This assay endpoint, NVS_ENZ_pMTHFR, was analyzed in the positive analysis fitting direction relative to DMSO as the negative control and baseline of activity. Using a type of enzyme reporter, loss-of-signal activity can be used to understand changes in the enzymatic activity as they relate to the gene MTHFR. Furthermore, this assay endpoint can be referred to as a primary readout, because this […] where this one serves a enzymatic activity function. To generalize the intended target to other relatable targets, this assay endpoint is annotated to the oxidoreductase intended target family, where the subfamily is methylenetetrahydrofolate reductase. […]
compound,measurement,value
CCNc1nc(N)nc(Cl)n1,AC50,inconclusive: 6.57 µM
